Laboratory results published in US7754243B2, “Aqueous suspension of nanoscale drug particles from supercritical fluid processing” (Clemson University Research Foundation, priority 2004, dated 2010).

How the values were obtained:
[1] = Statistical analysis of SEM images of nanoparticles in the product aqueous suspension; format: physicochemical; conditions: PVP; drug/polymer weight ratio varied from 0.3 to 4 (Ibuprofen) or 0.3 to 2 (Naproxen)
Procedure: A system similar to that illustrated in FIG. 1 was utilized to form aqueous suspensions of Ibuprofen particles. Specifically, a solution (0.25 mg/mL) of Ibuprofen (available from Sigma-Aldrich Corporation) in liquid carbon dioxide (high-purity, SFC grade obtained from Air Products Corporation) was prepared in the syringe pump 10. The solution was pushed through the heating unit 14 to reach the desired supercritical temperature of 40° C. before reaching the expansion nozzle 16. The rapid expansion was carried out at a pre-expansion pressure of 200 bar through a 50 μm orifice into an aqueous solution. A specimen of the product suspension was prepared for SEM imaging by depositing a few drops of the dilute nanoparticle aqueous suspension onto a carbon tape, followed by drying under ambient condition and then coating with platinum before imaging. SEM images were obtained on a Hitachi S-4700 Field-Emission SEM system.

[2] = Stability of the product aqueous suspension against precipitation; format: physicochemical
Procedure: A system similar to that illustrated in FIG. 1 was utilized to form aqueous suspensions of Ibuprofen particles. Specifically, a solution (0.25 mg/mL) of Ibuprofen (available from Sigma-Aldrich Corporation) in liquid carbon dioxide (high-purity, SFC grade obtained from Air Products Corporation) was prepared in the syringe pump 10. The solution was pushed through the heating unit 14 to reach the desired supercritical temperature of 40° C. before reaching the expansion nozzle 16. The rapid expansion was carried out at a pre-expansion pressure of 200 bar through a 50 μm orifice into an aqueous solution. FIG. 2A is an SEM analysis of the precipitate obtained when the receiving solution in the expansion chamber 18 was neat water. Initially, the aqueous suspension appeared homogeneous.

- change in average particle size on variation of drug/polymer weight ratio [1]: insensitive
SMILES: COc1ccc2cc([C@H](C)C(=O)O)ccc2c1 [Naproxen]
- stability of product suspension [2]: no sign of instability after several days
